The record followed here is paper PMC5325215.

In test [1] the target is T1, FILIP d872-1111 (3 x FLAG tagged) (rat) (UniProt Q8K4T4).
T1 sequence: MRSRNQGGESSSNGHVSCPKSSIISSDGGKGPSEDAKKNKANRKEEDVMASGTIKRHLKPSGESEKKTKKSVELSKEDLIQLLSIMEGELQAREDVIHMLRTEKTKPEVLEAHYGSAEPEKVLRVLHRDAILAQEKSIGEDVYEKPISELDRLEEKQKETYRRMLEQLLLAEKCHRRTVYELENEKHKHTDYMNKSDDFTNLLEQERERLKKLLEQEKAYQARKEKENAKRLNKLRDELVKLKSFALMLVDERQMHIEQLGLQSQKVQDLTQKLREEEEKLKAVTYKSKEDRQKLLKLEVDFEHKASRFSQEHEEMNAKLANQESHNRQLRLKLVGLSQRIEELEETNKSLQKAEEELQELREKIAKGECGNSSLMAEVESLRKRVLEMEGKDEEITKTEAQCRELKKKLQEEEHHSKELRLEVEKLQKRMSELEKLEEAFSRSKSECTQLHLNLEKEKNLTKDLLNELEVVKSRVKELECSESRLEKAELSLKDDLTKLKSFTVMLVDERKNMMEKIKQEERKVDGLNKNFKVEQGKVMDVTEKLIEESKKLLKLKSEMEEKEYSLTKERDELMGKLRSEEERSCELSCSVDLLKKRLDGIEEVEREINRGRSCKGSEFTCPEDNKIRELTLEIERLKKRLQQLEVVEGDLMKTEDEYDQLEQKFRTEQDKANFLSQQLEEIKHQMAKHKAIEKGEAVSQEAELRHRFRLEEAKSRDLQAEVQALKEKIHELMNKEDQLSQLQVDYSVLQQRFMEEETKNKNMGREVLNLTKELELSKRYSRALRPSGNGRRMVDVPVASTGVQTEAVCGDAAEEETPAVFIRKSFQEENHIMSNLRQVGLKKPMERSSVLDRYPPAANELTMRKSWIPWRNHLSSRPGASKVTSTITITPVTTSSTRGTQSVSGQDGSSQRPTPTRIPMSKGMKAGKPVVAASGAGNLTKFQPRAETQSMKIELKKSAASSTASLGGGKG
Put plainly: co-IP; COS-7 cells transfected with FLAG-tagged FILIP or deletion mutants; immunoprecipitation with anti-FLAG M2 on Protein G Dynabeads, 4°C, 3 hours; blots with anti-Hsc70 or anti-NMHCIIb; in Fig 4E also with expression of Hsc70 or Hsc70 K71M.

Test [2] concerns the target T2, FILIP d248-685 (3 x FLAG tagged) (rat) (UniProt Q8K4T4).
T2 sequence: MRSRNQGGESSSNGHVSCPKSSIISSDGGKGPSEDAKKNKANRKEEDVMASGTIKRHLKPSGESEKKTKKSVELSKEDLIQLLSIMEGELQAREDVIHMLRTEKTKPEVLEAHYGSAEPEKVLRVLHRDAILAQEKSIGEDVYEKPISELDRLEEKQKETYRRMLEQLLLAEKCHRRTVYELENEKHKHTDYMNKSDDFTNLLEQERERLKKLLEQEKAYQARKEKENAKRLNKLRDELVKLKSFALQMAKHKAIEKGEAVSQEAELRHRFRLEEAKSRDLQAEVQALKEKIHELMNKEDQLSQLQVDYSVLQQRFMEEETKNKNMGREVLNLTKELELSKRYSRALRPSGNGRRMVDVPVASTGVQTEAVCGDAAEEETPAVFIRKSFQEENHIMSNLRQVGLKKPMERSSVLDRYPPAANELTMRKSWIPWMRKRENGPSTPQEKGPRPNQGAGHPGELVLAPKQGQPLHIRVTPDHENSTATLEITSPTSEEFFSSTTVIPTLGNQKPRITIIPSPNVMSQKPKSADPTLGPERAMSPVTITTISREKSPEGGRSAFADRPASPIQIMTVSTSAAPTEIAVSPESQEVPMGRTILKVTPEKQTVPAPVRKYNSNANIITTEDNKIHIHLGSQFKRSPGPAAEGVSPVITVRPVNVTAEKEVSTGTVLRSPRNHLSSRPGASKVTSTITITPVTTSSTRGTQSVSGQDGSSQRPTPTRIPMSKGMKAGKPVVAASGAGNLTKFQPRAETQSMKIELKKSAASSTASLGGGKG
The description is as above.

These are yes or no findings as the source states them, for the method shown. In cells and extracts the contact can be indirect. Binding can be weak; no strength is given. Sequences can lack the tags named with a protein.

With “non-muscle myosin IIb (endogenous, COS-7 cells)”, the binding result in test [1] and in test [2] was “binds” each time.
